Measured values: publication doi:10.1101/2022.04.27.489770
Read-outs that look alike come from different tables or passages of the source. These are yes or no findings as the source states them, for the method shown. In cells and extracts the contact can be indirect. Some results given as binding are weak or reduced against the parent protein; the word gives no strength. Where a sequence is shown, tags or fusion partners need not be part of it.

By UniProt entry, the sequences of proteins in these tests, tags left out.
UniProt P29469: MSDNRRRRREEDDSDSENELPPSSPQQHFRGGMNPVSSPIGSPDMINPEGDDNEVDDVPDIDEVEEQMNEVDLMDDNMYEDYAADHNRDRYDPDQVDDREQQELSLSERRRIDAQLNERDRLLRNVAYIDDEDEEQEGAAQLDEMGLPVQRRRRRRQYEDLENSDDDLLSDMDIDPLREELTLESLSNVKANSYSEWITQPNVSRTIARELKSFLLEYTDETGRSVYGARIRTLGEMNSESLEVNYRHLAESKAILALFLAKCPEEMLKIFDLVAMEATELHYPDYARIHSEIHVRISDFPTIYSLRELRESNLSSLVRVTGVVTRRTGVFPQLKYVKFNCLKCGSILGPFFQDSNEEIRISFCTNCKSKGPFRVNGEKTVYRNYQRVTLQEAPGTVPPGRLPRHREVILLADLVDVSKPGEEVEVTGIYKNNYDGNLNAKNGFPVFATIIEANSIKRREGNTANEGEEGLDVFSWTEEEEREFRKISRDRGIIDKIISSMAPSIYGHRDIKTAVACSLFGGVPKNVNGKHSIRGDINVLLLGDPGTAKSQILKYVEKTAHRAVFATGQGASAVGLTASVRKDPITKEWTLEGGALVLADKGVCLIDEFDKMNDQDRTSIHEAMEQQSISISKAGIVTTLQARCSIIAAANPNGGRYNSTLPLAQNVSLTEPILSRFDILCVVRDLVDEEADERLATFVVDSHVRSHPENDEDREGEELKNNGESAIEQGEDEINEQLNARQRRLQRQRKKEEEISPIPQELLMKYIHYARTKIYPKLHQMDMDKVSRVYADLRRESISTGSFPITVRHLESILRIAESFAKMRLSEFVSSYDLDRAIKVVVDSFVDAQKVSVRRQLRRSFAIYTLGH

Assays:
Assay in all cases: co-IP
[1] = molecular target: T1, Spt6-3XFLAG (wild-type Spt6 with a C-terminal 3XFLAG epitope tag) (S. cerevisiae) (UniProt P23615)
T1 sequence: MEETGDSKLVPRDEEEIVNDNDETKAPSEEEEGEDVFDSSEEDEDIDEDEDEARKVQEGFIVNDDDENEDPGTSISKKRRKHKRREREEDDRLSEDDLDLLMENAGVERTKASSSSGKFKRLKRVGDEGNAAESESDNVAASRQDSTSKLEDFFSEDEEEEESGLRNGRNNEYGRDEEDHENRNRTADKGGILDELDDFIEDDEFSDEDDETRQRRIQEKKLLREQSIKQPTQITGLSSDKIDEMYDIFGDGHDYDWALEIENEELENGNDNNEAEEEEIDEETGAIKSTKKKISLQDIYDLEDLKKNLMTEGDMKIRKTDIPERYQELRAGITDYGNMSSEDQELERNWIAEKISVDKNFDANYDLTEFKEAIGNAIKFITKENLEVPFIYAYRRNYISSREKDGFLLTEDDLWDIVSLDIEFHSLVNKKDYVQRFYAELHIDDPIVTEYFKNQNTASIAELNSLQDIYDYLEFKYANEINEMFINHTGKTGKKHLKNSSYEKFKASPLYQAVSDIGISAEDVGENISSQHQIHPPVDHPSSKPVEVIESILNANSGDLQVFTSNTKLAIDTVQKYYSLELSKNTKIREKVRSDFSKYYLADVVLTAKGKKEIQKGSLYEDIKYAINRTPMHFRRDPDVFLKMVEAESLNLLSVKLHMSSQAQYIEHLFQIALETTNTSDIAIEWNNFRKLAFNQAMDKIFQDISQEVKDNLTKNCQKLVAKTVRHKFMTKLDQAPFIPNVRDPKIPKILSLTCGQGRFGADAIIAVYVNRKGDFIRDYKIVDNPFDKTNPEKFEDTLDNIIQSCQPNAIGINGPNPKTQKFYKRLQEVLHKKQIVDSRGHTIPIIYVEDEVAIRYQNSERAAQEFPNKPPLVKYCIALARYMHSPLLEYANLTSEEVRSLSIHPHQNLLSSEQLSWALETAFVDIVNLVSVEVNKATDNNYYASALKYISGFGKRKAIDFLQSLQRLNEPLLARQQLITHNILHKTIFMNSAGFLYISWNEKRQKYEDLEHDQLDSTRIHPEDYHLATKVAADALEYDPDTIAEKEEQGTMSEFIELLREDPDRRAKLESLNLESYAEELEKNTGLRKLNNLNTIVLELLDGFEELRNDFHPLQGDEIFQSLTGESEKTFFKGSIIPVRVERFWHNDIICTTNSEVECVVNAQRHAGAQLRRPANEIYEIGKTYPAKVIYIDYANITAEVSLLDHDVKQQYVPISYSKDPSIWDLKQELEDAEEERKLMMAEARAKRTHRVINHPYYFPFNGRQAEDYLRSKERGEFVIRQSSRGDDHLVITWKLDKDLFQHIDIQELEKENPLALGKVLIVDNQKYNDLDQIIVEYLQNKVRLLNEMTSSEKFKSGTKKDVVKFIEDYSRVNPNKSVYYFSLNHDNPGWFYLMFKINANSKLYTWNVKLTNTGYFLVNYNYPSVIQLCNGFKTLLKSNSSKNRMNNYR

[2] = molecular target: Mcm2-V5 (S. cerevisiae) (UniProt P29469)
[3] = molecular target: T2, Mcm4-V5 (S. cerevisiae) (UniProt P30665)
T2 sequence: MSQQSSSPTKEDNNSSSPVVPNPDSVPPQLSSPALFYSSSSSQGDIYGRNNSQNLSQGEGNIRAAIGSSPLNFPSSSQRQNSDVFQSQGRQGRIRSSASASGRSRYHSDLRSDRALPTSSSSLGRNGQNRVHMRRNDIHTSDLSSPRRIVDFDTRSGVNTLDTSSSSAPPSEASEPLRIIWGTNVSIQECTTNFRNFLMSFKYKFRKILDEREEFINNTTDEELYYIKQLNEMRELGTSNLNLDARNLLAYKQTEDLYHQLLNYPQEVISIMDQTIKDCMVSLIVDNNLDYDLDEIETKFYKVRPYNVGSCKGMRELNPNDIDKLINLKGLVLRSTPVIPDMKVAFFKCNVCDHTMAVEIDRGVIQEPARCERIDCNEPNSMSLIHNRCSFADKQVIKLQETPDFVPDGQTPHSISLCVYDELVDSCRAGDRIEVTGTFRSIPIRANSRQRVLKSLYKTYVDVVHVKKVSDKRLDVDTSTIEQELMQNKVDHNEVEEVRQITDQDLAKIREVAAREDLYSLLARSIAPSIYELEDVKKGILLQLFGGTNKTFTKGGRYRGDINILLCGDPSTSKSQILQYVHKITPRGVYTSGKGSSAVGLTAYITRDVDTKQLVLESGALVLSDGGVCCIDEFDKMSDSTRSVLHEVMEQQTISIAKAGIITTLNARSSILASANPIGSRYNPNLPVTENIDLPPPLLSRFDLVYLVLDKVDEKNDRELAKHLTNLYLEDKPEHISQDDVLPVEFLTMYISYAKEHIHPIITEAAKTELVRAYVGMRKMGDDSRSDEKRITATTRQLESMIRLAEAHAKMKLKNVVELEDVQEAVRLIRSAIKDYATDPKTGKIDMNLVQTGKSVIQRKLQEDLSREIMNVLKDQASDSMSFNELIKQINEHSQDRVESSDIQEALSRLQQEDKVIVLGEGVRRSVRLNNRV

[4] = molecular target: T3, 3X-FLAG-Spt6 (wild-type Spt6 with an N-terminal 3XFLAG epitope tag) (S. cerevisiae) (UniProt P23615)
T3 sequence: T1 sequence

[5] = molecular target: T1, Spt6-3XFLAG (wild-type Spt6 with a C-terminal 3XFLAG epitope tag) (S. cerevisiae); remark: listed apart in the source

**Q.** Mcm2-V5 (from UniProt P29469 1-868) was tested. Which binding [1] did it give?
**A.** binds

B1: Spt6-3XFLAG (wild-type Spt6 with a C-terminal 3XFLAG epitope tag) (protein, UniProt P23615 1-1451)
chain: T1 sequence
**Q.** Which results are given for B1?
**A.** binding [2]: binds; binding [3]: binds

B2: Mcm4-V5 (protein, UniProt P30665 1-933)
chain: T2 sequence
**Q.** How did the binding [4] turn out when B2 was run?
**A.** binds

**Q.** What about the binding [5] of the same molecule?
**A.** binds
